Binding data for three substances are collected here from PMC8752127.

Chains of the proteins cited; added tags and fusions are not shown.
UniProt Q15691: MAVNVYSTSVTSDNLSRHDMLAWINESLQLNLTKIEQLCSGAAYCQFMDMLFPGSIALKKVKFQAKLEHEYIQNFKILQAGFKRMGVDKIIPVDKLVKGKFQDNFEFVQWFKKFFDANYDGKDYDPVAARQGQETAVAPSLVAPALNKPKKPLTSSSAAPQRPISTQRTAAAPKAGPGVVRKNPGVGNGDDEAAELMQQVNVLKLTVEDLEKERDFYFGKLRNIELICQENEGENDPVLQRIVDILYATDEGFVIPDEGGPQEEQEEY

Experiment [1] addresses 3xFLAG tagged human EB1 (human) (UniProt Q15691). Briefly: pull-down; 3xFLAG-EB1 from 293 lysate on anti-FLAG M2 affinity gel; cleared lysates with 3xHA-TTBK2 constructs mixed with ~0.4 mg/ml recombinant GST-CEP164 1-109 (WT or Y73A); PBS, 0.1% IGEPAL CA-630, 0.1 mM DTT; 1 h, 4°C; Western blot.
In experiment [2] the target is MBP-TTBK2^1033−1087 WT (human) (UniProt Q6IQ55). As to the kind of experiment: pull-down; 30 μg purified MBP-TTBK2 1033-1087 constructs on amylose resin; 100 μg purified EB1 or CEP164-NTD-GFP added, optionally with a 10X molar excess of CEP164-NTD or EB1-GFP; PBS, 0.1% IGEPAL CA-630, 2 mM DTT; 1 h, 4°C; Coomassie-stained gel; both purified.
The target of experiment [3] is MBP-TTBK2^1033−1087, TTBK2^(1076−1078 RPP to AAA) (human) (UniProt Q6IQ55). The description is as above.

No constants are given. Whether binding was seen depends on the method and setting. For some of these results: In cells and extracts the contact can be indirect. Some entries that bind do so weakly or less than the wild type.

For “3xHA-TTBK2 carrying a deletion of its proline-rich region 1,074–1,087 (ΔPro.) (from UniProt Q6IQ55 1-1244) (enzyme)”, the binding result in experiment [1] is recorded as “binds”. For the substance “3xHA-tagged human TTBK2, full length, WT (from UniProt Q6IQ55 1-1244) (enzyme)”, in experiment [1], the binding result is reported as “binds”. “EB1, untagged, purified (from UniProt Q15691 1-268)”: the binding entry in experiment [2] and in experiment [3] was “binds” in each case.
